Laboratory results taken from the supplement of paper PMC10503962.
The list shows a part of the results. Repeats are few or missing, and single values can be far off.

Test system: Trichuris muris adult worms
Test: median motility score (Paragon pixel variance) of adult worms (arbitrary units); higher = more motile worms
Conditions: 24 h

Row | Compound | median motility score (20 µM) | median motility score (50 µM) | median motility score (100 µM)
1 | CNCCC(Oc1ccc(C(F)(F)F)cc1)c1ccccc1.Cl (configuration not stated) [fluoxetine hydrochloride] | 4770 | 4520 | 3980
2 | O=C(O)COCCN1CCN(C(c2ccccc2)c2ccc(Cl)cc2)CC1 (configuration not stated) [cetirizine] | 2400 | 3390 | 4520
3 | Clc1ccc(COC(Cn2ccnc2)c2ccc(Cl)cc2Cl)cc1 (configuration not stated) [econazole] | 0 | 0 | 0
4 | COc1cc2c3cc1Oc1cc(ccc1O)C[C@@H]1c4c(cc(OC)c(O)c4Oc4ccc(cc4)C[C@@H]3N(C)CC2)CC[N+]1(C)C.Cl.[Cl-] [tubocurarine chloride] | 690 | 3850 | 1190
5 | COC(=O)C1=C(C)NC(C)=C(C(=O)OC(C)C)C1c1cccc2nonc12 (configuration not stated) [isradipine] | 32 | 2400 | 1330
6 | CCCCc1ncc(/C=C(\Cc2cccs2)C(=O)O)n1Cc1ccc(C(=O)O)cc1 [eprosartan] | 311 | 3460 | 2830
7 | Cl.Cl.OCCOCCN1CCN(C(c2ccccc2)c2ccc(Cl)cc2)CC1 (configuration not stated) [hydroxyzine dihydrochloride] | 3900 | 4030 | 3330
8 | CCOC(=O)C1=C(C)NC(C)=C(C(=O)OC)C1c1cccc(Cl)c1Cl (configuration not stated) [felodipine] | 5120 | 29 | 0
9 | COc1ccccc1OCC(O)COC(N)=O (configuration not stated) [methocarbamol] | 3880 | 1810 | 2620
10 | N[C@@H](Cc1c[nH]c2ccccc12)C(=O)O [L-tryptophan] | 3110 | 4110 | 3200
11 | CCCCCCCCCCCCOS(=O)(=O)[O-].[Na+] [sodium lauryl sulfate] | 2890 | 4860 | 2290
12 | COc1ccccc1OCC(O)CN1CCN(CC(=O)Nc2c(C)cccc2C)CC1 (configuration not stated) [ranolazine] | 3170 | 2460 | 2560
13 | CN(C)CCOC(c1ccccc1)c1ccccc1 [diphenhydramine] | 2430 | 2130 | 2070
14 | CN(C)CCOC(c1ccc(Cl)cc1)c1ccccn1 (configuration not stated) [carbinoxamine] | 703 | 2760 | 508
15 | CN(C)CC(c1ccc(O)cc1)C1(O)CCCCC1 (configuration not stated) [desvenlafaxine] | 2780 | 2890 | 4870
16 | CN1CCC[C@@H]1CCO[C@](C)(c1ccccc1)c1ccc(Cl)cc1.Cl [clemastine hydrochloride] | 2580 | 644 | 0
17 | Cc1ccccc1N1C(=O)c2cc(S(N)(=O)=O)c(Cl)cc2NC1C (configuration not stated) [metolazone] | 3380 | 1310 | 3650
18 | CC(C)Nc1cccnc1N1CCN(C(=O)c2cc3cc(NS(C)(=O)=O)ccc3[nH]2)CC1.CS(=O)(=O)O [delavirdine mesylate] | 1670 | 2580 | 2660
19 | Cl.OC(CCN1CCCC1)(c1ccccc1)C1CCCCC1 (configuration not stated) [procyclidine hydrochloride] | 2080 | 5100 | 3520
20 | CN(C)CC/C=C1/c2ccccc2COc2ccc(CC(=O)O)cc21 [olopatadine] | 2840 | 1290 | 2220

Some of the entries so far, with each value named.
CN1CCC[C@@H]1CCO[C@](C)(c1ccccc1)c1ccc(Cl)cc1.Cl [clemastine hydrochloride]
  median motility score (20 µM): 2580
  median motility score (50 µM): 644
  median motility score (100 µM): 0
Cc1ccccc1N1C(=O)c2cc(S(N)(=O)=O)c(Cl)cc2NC1C (configuration not stated) [metolazone]
  median motility score (20 µM): 3380
  median motility score (50 µM): 1310
  median motility score (100 µM): 3650
CC(C)Nc1cccnc1N1CCN(C(=O)c2cc3cc(NS(C)(=O)=O)ccc3[nH]2)CC1.CS(=O)(=O)O [delavirdine mesylate]
  median motility score (20 µM): 1670
  median motility score (50 µM): 2580
  median motility score (100 µM): 2660

Next compounds follow.

Row | Compound | median motility score (20 µM) | median motility score (50 µM) | median motility score (100 µM)
21 | CN(C)CCC(c1ccc(Cl)cc1)c1ccccn1 (configuration not stated) [chlorpheniramine] | 2870 | 2230 | 4260
22 | CN(C)CCCN1c2ccccc2CCc2ccccc21 [imipramine] | 1500 | 2460 | 2160
23 | CCCCN1CCCCC1C(=O)Nc1c(C)cccc1C (configuration not stated) [bupivacaine] | 1890 | 3650 | 3390
24 | COc1cc2nc(N3CCN(C(=O)c4ccco4)CC3)nc(N)c2cc1OC [prazosin] | 20 | 503 | 20
25 | CC(=O)N1CCN(c2ccc(OCC3COC(Cn4ccnc4)(c4ccc(Cl)cc4Cl)O3)cc2)CC1 (configuration not stated) [ketoconazole] | 2850 | 4120 | 4210
26 | CNCCCC1c2ccccc2C=Cc2ccccc21.Cl [protriptyline hydrochloride] | 2740 | 2100 | 1060
27 | Fc1ccc(C(c2ccc(F)cc2)N2CCN(C/C=C/c3ccccc3)CC2)cc1 [flunarizine] | 4280 | 870 | 0
28 | CCOC(=O)c1ccc(N)cc1 [benzocaine] | 3510 | 2560 | 1540
29 | CN(C)CCCN1c2ccccc2CCc2ccc(Cl)cc21.Cl [clomipramine hydrochloride] | 725 | 0 | 0
30 | CC(=O)Oc1c(C)cc(OCC(O)CNC(C)C)c(C)c1C (configuration not stated) [metipranolol] | 1880 | 2230 | 1900
31 | CN(C)CCC(c1ccccc1)c1ccccn1 (configuration not stated) [pheniramine] | 561 | 2340 | 3110
32 | Cc1ccc(/C(=C\CN2CCCC2)c2ccccn2)cc1 [triprolidine] | 2920 | 2230 | 3220
33 | O=C(O[C@H]1C[C@H]2CC3C[C@@H](C1)N2CC3=O)c1c[nH]c2ccccc12 [dolasetron] | 3010 | 3130 | 3480
34 | NS(=O)(=O)c1cc2c(cc1Cl)N=CNS2(=O)=O [chlorothiazide] | 175 | 3200 | 2780
35 | CN(C)CCC=C1c2ccccc2C=Cc2ccccc21.Cl [cyclobenzaprine hydrochloride] | 4270 | 3570 | 1300
36 | CC1Cc2ccccc2N1NC(=O)c1ccc(Cl)c(S(N)(=O)=O)c1 (configuration not stated) [indapamide] | 3860 | 2660 | 2280
37 | CN1CCC(=C2c3ccccc3C=Cc3ccccc32)CC1 [cyproheptadine] | 3340 | 0 | 0
38 | OC(CNCC(O)C1CCc2cc(F)ccc2O1)C1CCc2cc(F)ccc2O1 (configuration not stated) [nebivolol] | 3350 | 2170 | 3940
39 | COc1cc(C(=O)NCc2ccc(OCCN(C)C)cc2)cc(OC)c1OC [trimethobenzamide] | 5080 | 2480 | 4340
40 | Cl.OC(CCN1CCCCC1)(c1ccccc1)C1CCCCC1 (configuration not stated) [trihexyphenidyl hydrochloride] | 2030 | 4410 | 2970

Row | Compound | median motility score (20 µM) | median motility score (50 µM) | median motility score (100 µM)
41 | CN1CCCC(n2nc(Cc3ccc(Cl)cc3)c3ccccc3c2=O)CC1.Cl (configuration not stated) [azelastine hydrochloride] | 2960 | 2690 | 0
42 | OC(Cn1cncn1)(Cn1cncn1)c1ccc(F)cc1F [fluconazole] | 1140 | 4460 | 3500
43 | Clc1ccc(CCC(Cn2ccnc2)Sc2c(Cl)cccc2Cl)cc1.O=[N+]([O-])O (configuration not stated) [butoconazole nitrate] | 0 | 2070 | 0
44 | CN(C)CC/C=C1\c2ccccc2COc2ccccc21.Cl [doxepin hydrochloride] | 2550 | 5300 | 4490
45 | C=C[C@H]1CN2CC[C@H]1C[C@H]2[C@H](O)c1ccnc2ccc(OC)cc12 [quinine] | 105 | 5270 | 2640
46 | CC(C)NCC(O)COc1ccc(COCCOC(C)C)cc1 (configuration not stated) [bisoprolol] | 1340 | 1590 | 1910
47 | NS(=O)(=O)c1cc(C(=O)O)c(NCc2ccco2)cc1Cl [furosemide] | 2320 | 2130 | 2450
48 | CCN(CC)CC(=O)Nc1c(C)cccc1C [lidocaine] | 760 | 2720 | 3180
49 | COC(=O)C1=C(C)NC(C)=C(C(=O)OCC(C)C)C1c1ccccc1[N+](=O)[O-] (configuration not stated) [nisoldipine] | 775 | 2110 | 1120
50 | CN(C)CCC[C@@]1(c2ccc(F)cc2)OCc2cc(C#N)ccc21 [escitalopram] | 3090 | 1230 | 2490
51 | CC(CN1c2ccccc2Sc2ccccc21)N(C)C (configuration not stated) [promethazine] | 1500 | 2970 | 1460
52 | Cc1ccccc1C(OCCN(C)C)c1ccccc1.Cl (configuration not stated) [orphenadrine hydrochloride] | 4580 | 2100 | 2680
53 | CC(C)[C@H]1CC[C@H](C(=O)N[C@H](Cc2ccccc2)C(=O)O)CC1 [nateglinide] | 1690 | 1030 | 2140
54 | NS(=O)(=O)c1cc2c(cc1C(F)(F)F)NC(Cc1ccccc1)NS2(=O)=O (configuration not stated) [bendroflumethiazide] | 352 | 4140 | 3940
55 | Cc1cccc(C)c1NC(=O)C1CCCCN1C (configuration not stated) [mepivacaine] | 3830 | 4510 | 2340
56 | O=C(O)CCCCCCCC(=O)O [azelaic acid] | 2710 | 3320 | 3510
57 | CN1CCN2c3ncccc3Cc3ccccc3C2C1 (configuration not stated) [mirtazapine] | 5520 | 4510 | 4550
58 | Cc1nccn1CC1CCc2c(c3ccccc3n2C)C1=O (configuration not stated) [ondansetron] | 126 | 4900 | 2660
59 | CCCC(=O)Nc1ccc(OCC(O)CNC(C)C)c(C(C)=O)c1 (configuration not stated) [acebutolol] | 2490 | 2740 | 2030
